Measurements published in US20180079804A1.

Columns and labels:
[1] = molecular target: keyhole limpet hemocyanin; test: condition: 1:5 dilution of the cell culture supernatants; ELISA, single-point
[2] = molecular target: microtubuli associated tau; test: ELISA

Binder | binding [1] | binding [2]
mAb 086 (antibody, V domains shown) VH: QSVEESGGRLVTPGTPLTLTCTVSGFSLSSNAINWVRQAPGKGLEWIGYIAVSGNTYYASWAKGRFTISKASTTVDLKMTSPTAEDTGTYFCGKSNIWGPGTLVTVSL VL: AQVLTQTTSPVSAAVGSTVTISCQSSQSVRTNKLAWFQQKPGQPPKRLIYSASTLDFGVPSRFSASGSGTQFTLTISDVQCDDAATYYCLGYFDCSIADCVAFGGGTEVVVK | no binding | 
VH00/VL00 (antibody, V domains shown) VH: QSVEESGGRLVTPGTPLTLTCTVSGFSLSSNAINWVRQAPGKGLEWIGYIAVSGNTYYASWAKGRFTISKASTTVDLKMTSPTAEDTGTYFCGKSNIWGPGTLVTVSL VL: AQVLTQTTSPVSAAVGSTVTISCQSSQSVRTNKLAWFQQKPGQPPKRLIYSASTLDFGVPSRFSASGSGTQFTLTISDVQCDDAATYYCLGYFDCSIADCVAFGGGTEVVVK |  | no binding
VH32/VL21 (antibody, V domains shown) VH: EVQVLESGGGLVQPGGSLRLSCAVSGFSLSSNAINWVRQAPGKGLEWVGYIAVSGNTYYASWAKGRFTISRDNSKNTVYLQMNSLRAEDTAVYYCGKSNIWGQGTLVTVSS VL: AQVMTQSPSSLSASVGDRVTITCRSSQSVRTNKLAWFQQKPGQPPKRLIYSASTLDFGVPSRFSGSGSGTEFTLTISSLQPEDFATYYCLGYFDSSADIVAFGGGTKVEIK |  | no binding
VH32/VL22 (antibody, V domains shown) VH: EVQVLESGGGLVQPGGSLRLSCAVSGFSLSSNAINWVRQAPGKGLEWVGYIAVSGNTYYASWAKGRFTISRDNSKNTVYLQMNSLRAEDTAVYYCGKSNIWGQGTLVTVSS VL: AQVMTQSPSSLSASVGDRVTITCRSSQSVRTNRLAWFQQKPGQPPKRLIYSASTLDYGVPSRFSGSGSGTEFTLTISSLQPEDFATYYCLGYFDSSADIVAFGGGTKVEIK |  | no binding

No constants are given. Whether binding was seen depends on the method and setting.
